Our source for the binding values is article PMC6651783.

For experiment [1], the target named is NPR4 (Arabidopsis NPR1 paralog) (Arabidopsis) (UniProt Q5ICL9). Nature of the experiment: two-hybrid; mated diploid yeast diluted to OD600 1.0, 0.1 and 0.01, plated on quadruple dropout (-Leu-Trp-His-Ade) agar with or without 200 uM NaSA or SA analogs, 30 C for 72 h; read-out is colony growth.
For experiment [2], the target named is T1, NPR3 (Arabidopsis NPR1 paralog) (Arabidopsis) (UniProt Q8L746).
T1 sequence: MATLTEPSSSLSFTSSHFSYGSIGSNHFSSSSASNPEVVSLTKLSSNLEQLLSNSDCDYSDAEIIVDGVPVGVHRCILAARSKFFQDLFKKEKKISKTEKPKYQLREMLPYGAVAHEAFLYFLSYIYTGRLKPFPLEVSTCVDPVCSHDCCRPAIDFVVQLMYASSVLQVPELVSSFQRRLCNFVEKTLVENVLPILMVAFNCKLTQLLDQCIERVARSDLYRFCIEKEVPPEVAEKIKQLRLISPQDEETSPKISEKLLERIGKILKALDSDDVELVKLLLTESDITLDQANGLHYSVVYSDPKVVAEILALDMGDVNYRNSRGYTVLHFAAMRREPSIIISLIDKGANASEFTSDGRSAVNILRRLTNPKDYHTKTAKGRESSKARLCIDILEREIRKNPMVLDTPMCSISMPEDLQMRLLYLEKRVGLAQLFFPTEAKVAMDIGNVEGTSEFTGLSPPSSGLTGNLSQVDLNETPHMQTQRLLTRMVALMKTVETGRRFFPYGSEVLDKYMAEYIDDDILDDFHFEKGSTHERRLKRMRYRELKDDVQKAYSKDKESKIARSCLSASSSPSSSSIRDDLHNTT
Described as above.

These are yes or no findings as the source states them, for the method shown. Some binding calls cover weakened binding; strength is not graded here.

B1: NPR4 (Arabidopsis NPR1 paralog) (protein, UniProt Q5ICL9 1-574)
chain: MAATAIEPSSSISFTSSHLSNPSPVVTTYHSAANLEELSSNLEQLLTNPDCDYTDAEIIIEEEANPVSVHRCVLAARSKFFLDLFKKDKDSSEKKPKYQMKDLLPYGNVGREAFLHFLSYIYTGRLKPFPIEVSTCVDSVCAHDSCKPAIDFAVELMYASFVFQIPDLVSSFQRKLRNYVEKSLVENVLPILLVAFHCDLTQLLDQCIERVARSDLDRFCIEKELPLEVLEKIKQLRVKSVNIPEVEDKSIERTGKVLKALDSDDVELVKLLLTESDITLDQANGLHYAVAYSDPKVVTQVLDLDMADVNFRNSRGYTVLHIAAMRREPTIIIPLIQKGANASDFTFDGRSAVNICRRLTRPKDYHTKTSRKEPSKYRLCIDILEREIRRNPLVSGDTPTCSHSMPEDLQMRLLYLEKRVGLAQLFFPAEANVAMDVANVEGTSECTGLLTPPPSNDTTENLGKVDLNETPYVQTKRMLTRMKALMKTVETGRRYFPSCYEVLDKYMDQYMDEEIPDMSYPEKGTVKERRQKRMRYNELKNDVKKAYSKDKVARSCLSSSSPASSLREALENPT
Regarding B1, the binding result in experiment [1] and in experiment [2] was “binds” each time.

B2: NPR3 (Arabidopsis NPR1 paralog) (protein, UniProt Q8L746 1-586)
chain: MATLTEPSSSLSFTSSHFSYGSIGSNHFSSSSASNPEVVSLTKLSSNLEQLLSNSDCDYSDAEIIVDGVPVGVHRCILAARSKFFQDLFKKEKKISKTEKPKYQLREMLPYGAVAHEAFLYFLSYIYTGRLKPFPLEVSTCVDPVCSHDCCRPAIDFVVQLMYASSVLQVPELVSSFQRRLCNFVEKTLVENVLPILMVAFNCKLTQLLDQCIERVARSDLYRFCIEKEVPPEVAEKIKQLRLISPQDEETSPKISEKLLERIGKILKALDSDDVELVKLLLTESDITLDQANGLHYSVVYSDPKVVAEILALDMGDVNYRNSRGYTVLHFAAMRREPSIIISLIDKGANASEFTSDGRSAVNILRRLTNPKDYHTKTAKGRESSKARLCIDILEREIRKNPMVLDTPMCSISMPEDLQMRLLYLEKRVGLAQLFFPTEAKVAMDIGNVEGTSEFTGLSPPSSGLTGNLSQVDLNETPHMQTQRLLTRMVALMKTVETGRRFFPYGSEVLDKYMAEYIDDDILDDFHFEKGSTHERRLKRMRYRELKDDVQKAYSKDKESKIARSCLSASSSPSSSSIRDDLHNTT
With B2, in experiment [2], the binding result is listed as “binds”.
